# PubChem BioAssay AID2551 (National Center for Advancing Translational Sciences (NCATS), 2010)
# Sequences of proteins named here, by UniProt entry; tags and fusion partners are left off. A change or cut given only in a name is not applied to a line headed by its entry.
# UniProt P51450: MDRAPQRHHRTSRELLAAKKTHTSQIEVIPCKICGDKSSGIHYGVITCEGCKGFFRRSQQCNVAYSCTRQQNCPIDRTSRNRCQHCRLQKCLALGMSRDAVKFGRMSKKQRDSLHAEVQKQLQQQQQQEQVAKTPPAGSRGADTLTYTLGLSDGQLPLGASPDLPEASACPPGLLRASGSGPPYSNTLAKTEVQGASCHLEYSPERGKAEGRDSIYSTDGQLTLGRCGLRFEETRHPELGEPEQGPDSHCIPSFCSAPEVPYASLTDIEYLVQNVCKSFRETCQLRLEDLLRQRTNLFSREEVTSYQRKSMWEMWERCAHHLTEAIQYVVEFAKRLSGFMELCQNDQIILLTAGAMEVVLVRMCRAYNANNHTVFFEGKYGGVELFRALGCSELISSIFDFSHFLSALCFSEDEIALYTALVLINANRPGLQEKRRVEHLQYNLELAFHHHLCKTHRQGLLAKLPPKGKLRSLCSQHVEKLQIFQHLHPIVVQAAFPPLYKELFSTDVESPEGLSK
# About 17,000 (5.5%) of roughly 310,000 compounds were called active. The shares of active, inactive and inconclusive entries below differ from those in the screen. Calls follow the shape of the dose curve; as a rule, active = well fitted inhibition curve with a large enough effect; inconclusive = small, poorly fitted or top-dose-only effect, or effect the other way; inactive = no such curve, though single readings can be large or run the other way. Where the call is inconclusive, the potency comes from a doubtful curve fit. More than one record can exist for a structure, and the calls need not agree.
# Target: Nuclear receptor ROR-gamma (Mus musculus) (UniProt P51450)
# Assay: qHTS for inhibitors of ROR gamma transcriptional activity; also: nearly all actives have a fitted effect of over 60% in size
# Conditions: Drosophila S2 Gal4-RORgamma UAS-luciferase reporter, 20 h; series mostly up to 53.6 µM
# Method in brief: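 Luminescence from a UAS-regulated Photinus luciferase reporter in stably transfected Drosophila Schneider cells is measured; decreased signal marks ROR gamma inhibition. Fusion expression is induced by 700 uM copper sulfate for 20 hr.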
# Potency is read from the fitted curve at half-maximal effect.
row,SMILES,Potency
1,CC1=C(/C=C/C(C)=C/C=C/C(C)=C/C(=O)O)C(C)(C)CCC1,active: 5.01 µM
2,COc1ccccc1Oc1ccc2c(c1)C(=O)N(CC1CCCO1)C2=O (stereo not given),"inconclusive: 11.2 µM [activator, partial curve]"
3,CC(=O)N1CCc2c(sc(NC(=O)CN3C(=O)CCC3=O)c2C(N)=O)C1,"inconclusive: 25.1 µM [activator, single point]"
4,Cc1cc(NC(=O)c2cc(-c3cccnc3)nc3c(C)c(C)ccc23)no1,"inconclusive: 0.01 µM [inhibitor, full curve, poor fit]"
5,O=C(NC1CCCCCC1)C1CCN(S(=O)(=O)c2ccccc2)CC1,inactive
6,O=C1OCCC1Sc1nc2ccccc2c(=O)n1Cc1ccc(F)cc1 (stereo not given),active: 3.98 µM
7,COc1ccccc1C1=NN(C2=NN=C(N)Cc3ncnn32)C(O)(C(F)(F)F)C1 (stereo not given),"inconclusive: 15.8 µM [inhibitor, single point]"
8,O=C(Nc1ccc(N2CCCC2)cc1)c1cccc(Cl)c1,"inconclusive: 15.8 µM [inhibitor, single point]"
9,O=C(Cc1cccs1)NCCc1csc(-c2ccccc2)n1,"inconclusive: 14.1 µM [activator, single point]"
10,O=C(CN(Cc1ccccc1)C(=O)c1cc2c(s1)CCC2)NCc1cccs1,"inconclusive: 11.2 µM [activator, partial curve]"
11,CCn1c(NN)nc2sc3c(c2c1=O)CCC3,"inconclusive: 22.4 µM [inhibitor, single point]"
12,COc1ccc(Nc2nc3ccccc3n2C)cc1,inactive
13,CC/C(=N/NC(=O)c1ccc(Br)cc1)c1ccc(OCCN2CCOCC2)cc1,"inconclusive: 35.5 µM [inhibitor, single point]"
14,Cc1cc(/C=C(\C#N)C(=O)NCc2ccco2)c(C)n1-c1cccnc1,"inconclusive: 2 µM [activator, full curve, poor fit]"
15,COc1ccc(OC)c(C2=NS(=O)(=O)N(C)C(C(=O)Nc3ccc(C(C)=O)cc3)=C2)c1,"inconclusive: 35.5 µM [activator, single point]"
16,O=C(COC(=O)CCS(=O)(=O)c1ccc(Cl)cc1)NCCc1ccc(Cl)cc1Cl,inactive
17,Cc1nn(CC(=O)NCc2ccc(-n3cccn3)cc2)c(C)c1[N+](=O)[O-],inactive
18,CN(C(=O)c1ccco1)c1nc2c(s1)CCCC2,"inconclusive: 5.01 µM [inhibitor, full curve, poor fit]"
19,Cc1ccc2c(c1)C(N1CCCC1=O)CC(c1ccco1)N2 (stereo not given),"inconclusive: 0.005 µM [activator, full curve, poor fit]"
20,O=C(CN1C(=O)S/C(=C\c2ccccc2Cl)C1=O)NC1C=CS(=O)(=O)C1 (stereo not given),"inconclusive: 7.94 µM [inhibitor, partial curve]"
21,O=C(COc1ccc(Cl)cc1Br)NC(=O)NCc1ccccc1,"inconclusive: 14.1 µM [activator, single point]"
22,CCOC(=O)c1c(C)[nH]c(C)c1C(=O)COC(=O)c1cccc(S(=O)(=O)N(CC)CC)c1,"inconclusive: 0.355 µM [activator, full curve, poor fit]"
23,Nc1c(Cl)cc(Cl)cc1C(=O)OCC(=O)NC1CC1,"inconclusive: 25.1 µM [activator, single point]"
24,Cc1ccc2cc3cc(C(=O)N4CC(C)CC(C)C4)oc3nc2c1 (stereo not given),"inconclusive: 15.8 µM [activator, partial curve]"

# 5 compounds out of the list, ordered by molar mass, falling:
row,SMILES,Potency
15,COc1ccc(OC)c(C2=NS(=O)(=O)N(C)C(C(=O)Nc3ccc(C(C)=O)cc3)=C2)c1,"inconclusive: 35.5 µM [activator, single point]"
5,O=C(NC1CCCCCC1)C1CCN(S(=O)(=O)c2ccccc2)CC1,inactive
19,Cc1ccc2c(c1)C(N1CCCC1=O)CC(c1ccco1)N2 (stereo not given),"inconclusive: 0.005 µM [activator, full curve, poor fit]"
18,CN(C(=O)c1ccco1)c1nc2c(s1)CCCC2,"inconclusive: 5.01 µM [inhibitor, full curve, poor fit]"
12,COc1ccc(Nc2nc3ccccc3n2C)cc1,inactive

# Continuation.

row,SMILES,Potency
1,COc1ccc(CCNC(=O)c2cc(-c3cc(C)cc(C)c3O)n[nH]2)cc1OC,inactive
2,Nc1ccc(N2CCOCC2)c2nonc12,"inconclusive: 35.5 µM [inhibitor, partial curve, poor fit]"
3,Cc1cc([N+](=O)[O-])ccc1-c1ccc(C2Nc3ccccc3C(=O)N2O)o1 (stereo not given),"inconclusive: 0.562 µM [inhibitor, full curve, poor fit]"
4,Cc1c(CCC(=O)O)c(=O)oc2c(C)c(OCc3ccccc3Cl)ccc12,"inconclusive: 4.47 µM [inhibitor, full curve]"
5,COc1ccc(OC)c(C(=O)CSc2nc3cccnc3n2C)c1,"inconclusive: 35.5 µM [inhibitor, single point]"
6,CCOC(=O)N1CCN(c2nc(-c3ccc(OC)cc3)no2)CC1,"inconclusive: 10 µM [activator, partial curve]"
7,COc1ccc(C(=O)CSc2[nH]c(=O)cc(C(F)(F)F)c2C#N)cc1,"inconclusive: 22.4 µM [activator, single point]"
8,Cc1nc(NC(=O)CCl)sc1C(=O)N(C)C,"inconclusive: 25.1 µM [inhibitor, single point]"
9,COc1cccc(C(=O)Nc2nnc(-c3ccc(F)cc3)o2)c1,active: 5.01 µM
10,c1cnc2c(SCc3ccc(-c4nnco4)cc3)cccc2c1,"inconclusive: 12.6 µM [inhibitor, partial curve, poor fit]"
11,COc1ccc(NC(=O)c2ccco2)cc1NC(=O)c1ccc(C)cc1,inactive
12,COC(=O)c1cc(Cl)cc(Cl)c1OS(=O)(=O)N(C)C,"inconclusive: 6.31 µM [inhibitor, single point]"
13,O=S(=O)(c1ccc(S(=O)(=O)N2CCCC3(CCCCC3)C2)cc1)N1CCCCC1,inactive
14,CCN(CC)c1ccc(/C=C2\SC(=O)N(C(C)C)C2=O)o1,active: 3.55 µM
15,COc1ccc(C(=O)NCCCc2nc3ccccc3n2Cc2ccccc2C)cc1OC,"inconclusive: 28.2 µM [activator, single point]"
16,Cc1nc2ccc(S(=O)(=O)NCC(=O)O)cc2s1,"inconclusive: 12.6 µM [activator, single point]"
17,CN(C)C(=O)c1noc2cc([N+](=O)[O-])ccc12,"inconclusive: 3.55 µM [inhibitor, single point]"
18,COc1ccc(C2CC(c3cccs3)Nc3nnnn32)cc1 (stereo not given),"inconclusive: 12.6 µM [activator, single point]"
19,Fc1ccccc1Cn1cc(C(=S)N2CCOCC2)c2ccccc21,"inconclusive: 8.91 µM [inhibitor, partial curve]"
20,Cc1cc2oc(C(=O)NC3CCS(=O)(=O)C3)c(C)c2cc1C (stereo not given),inactive
21,Cc1cccc(OCc2nc(C#N)c(NCc3ccc4c(c3)OCO4)o2)c1,inactive
22,CCn1c(C)c(C(C)=O)c(N2CCN(c3ccc(OC)cc3)CC2)nc1=S,inactive
23,COc1ccc(C(=O)NCc2nnc(SCC(=O)Nc3nc4ccccc4s3)o2)cc1OC,active: 11.2 µM
24,COc1ccc([N+](=O)[O-])cc1N,inactive

row,SMILES,Potency
1,COc1ccc(CCNc2oc(-c3ccc(C)cc3)nc2C#N)cc1OC,"inconclusive: 11.2 µM [activator, partial curve]"
2,C=C1C(=O)C=C[C@]2(C)C[C@@H]3OC(=O)[C@](C)(O)[C@H]3C[C@@H]12,"inconclusive: 35.5 µM [inhibitor, single point]"
3,COc1ccc(-n2ccc(-c3nn(-c4cccc(C(F)(F)F)c4)ccc3=O)n2)cc1,inactive
4,O=C(NCCCn1ccnc1)/C(=C/c1ccco1)NC(=O)c1ccco1,inactive
5,Cc1nc(Nc2nc3ccccc3o2)nc2c1CCC2,active: 2.82 µM
6,COc1cc(/C=N/O)ccc1OCc1ccc(C(=O)O)cc1,active: 1 µM
7,CCOc1cc(/C=N/Nc2nnc(C)n2N)ccc1O,"inconclusive: 17.8 µM [inhibitor, single point]"
8,Cn1c(SCC(=O)Nc2nccs2)nnc1C12CC3CC(CC(C3)C1)C2,"inconclusive: 15.8 µM [inhibitor, single point]"
9,O=C(NNS(=O)(=O)c1ccc([N+](=O)[O-])cc1)c1ccc([N+](=O)[O-])cc1,"inconclusive: 11.2 µM [inhibitor, single point]"
10,C/C(=N\NC(=O)c1ccc(CSc2nc(C)cc(C)n2)cc1)c1ccco1,"inconclusive: 8.91 µM [inhibitor, partial curve]"
11,CC(=O)N[C@@H](c1ccccc1)[C@]1(C)C[C@H]1[C@@H](C)C(=O)Nc1ccc2ccccc2c1,active: 0.355 µM
12,O=C(COC(=O)c1cncc(Br)c1)NCCC1=CCCCC1,"inconclusive: 35.5 µM [inhibitor, single point]"
13,O=C1CC(N2CCN(c3ccccn3)CC2)C(=O)N1CC(c1ccccc1)c1ccccc1 (stereo not given),inactive
14,COC(=O)c1ccccc1SC1CC(=O)N(c2ccccc2)C1=O (stereo not given),"inconclusive: 5.62 µM [inhibitor, single point]"
15,Cn1cnnc1SCC(=O)c1cc2ccccc2oc1=O,"inconclusive: 35.5 µM [inhibitor, single point]"
16,CCOC(=O)C[n+]1c(C)sc2ccc(OC)cc21,"inconclusive: 25.1 µM [inhibitor, single point]"
17,CN(C)c1ccc(C=Nc2ccccc2C(N)=O)cc1,"inconclusive: 15.8 µM [inhibitor, single point]"
18,CC[C@@]1(c2ccccc2C)C(=O)N(C(=O)OC)N1C(=O)OC,"inconclusive: 17.8 µM [inhibitor, single point]"
19,O=C(/C=C/c1ccc2c(c1)OCCCO2)c1ccccc1O,"inconclusive: 14.1 µM [inhibitor, single point]"
20,O=C(CCC(=O)N1CCOCC1)Nc1ccc(Cl)c(Cl)c1,"inconclusive: 0.224 µM [activator, full curve]"
21,Cc1noc(-c2ccc(C(F)(F)F)cc2)c1NC(=O)Nc1ccc(Cl)cc1,"inconclusive: 28.2 µM [inhibitor, single point]"
22,COc1ccccc1-c1cc(C(=O)N/N=C\c2cnn(C)c2C)c2ccccc2n1,"inconclusive: 11.2 µM [inhibitor, single point]"
